From PubChem BioAssay AID445 (National Center for Advancing Translational Sciences (NCATS), 2006) come the findings set out here.

The nature of this assay: IkB Signaling. Conditions: ABC-DLBCL IkBa-CBG/CBR dual luciferase ratio (green luciferase fused to IkBa over red control in OCI-Ly3 lymphoma cells), 4 h. The essentials:
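Curves were fitted separately to fusion (green), unfused (red) and ratio luminescence, then classed by r2, magnitude and activity. Cells: OCI-Ly3, 4 h compound plus doxycycline at 37C; 10 uM MG-132 defined full response.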

The mark [1] stands for this setting: measured here: control luc red channel unless noted.

Structures are written as SMILES. This is one part of the list. Shown are side measurements of this screen, not its main read-out; they come without a call. The list favours compounds with an active or inconclusive main result. Potencies come from curve fits of mixed quality, noted in brackets.

On to `CC(C)c1cnc2c(c1SCC(=O)N1CCCCC1)c(=O)n(C)c(=O)n2C`, for which the AC50 under setting [1] was 0.0398 µM [falling, full curve, poor fit].

Take `Cc1noc(C)c1C(=O)Nc1nnc(-c2ccccc2)s1`: the AC50 under setting [1] was 7.94 µM [falling, partial curve]. Regarding `O=S(=O)(c1ccc2nc(-c3ccco3)c(-c3ccco3)nc2c1)N1CCOCC1`, the AC50 under setting [1] was 39.8 µM [rising, single point] [measured here: IkB-luc green channel]. As to `CCc1ccc2c(c1)NC(c1ccc(C)cc1)=NC(c1cccs1)=N2`, the AC50 under setting [1] is 0.316 µM [rising, partial curve].

As for `CC(C)(C)OC(=O)N1CCC(c2c(C(=O)O)cnn2-c2ccc(Cl)cc2)CC1`, the AC50 under setting [1] is 7.94 µM [falling, partial curve]. For `CCn1c(=O)sc2cc(NS(=O)(=O)c3ccc(C)cc3)ccc21`, the AC50 (measured here: IkB-luc green channel) was 25.1 µM [rising, partial curve, poor fit] and the AC50 (measured here: control luc red channel) is 2.51 µM [falling, partial curve]. With `CCCN1C(C(=O)c2ccccc2)=C(OC(=O)c2ccc(OC)cc2)c2ccccc2S1(=O)=O`, under setting [1], the AC50 was 3.16 µM [falling, full curve]. On the same count and under the same terms, for `CN(Cc1ccc(F)cc1)S(=O)(=O)c1nnc(NC(=O)c2ccccc2Cl)s1` the value was 20 µM [falling, partial curve]; for `Cn1nnnc1SCCCNCc1ccc(-c2ccc(F)c(Cl)c2)o1`, 0.2 µM [falling, full curve, poor fit]. As for `Cc1ccc(CNC(=O)C2CCCN(S(=O)(=O)c3cn(C)cn3)C2)cc1` (configuration not stated), the AC50 under setting [1] was 15.8 µM [falling, partial curve, poor fit].

For `Cn1cnc2c(sc3nc(N4CCOCC4)c4c(c32)CC(C)(C)OC4)c1=O`, the concentration at half-maximal activity (AC50) under setting [1] was 0.501 µM [rising, partial curve]. `COc1cccc(/C=N/n2c(C)nc3ccccc32)c1OC`: the AC50 under setting [1] is 39.8 µM [falling, single point]. Take `Cc1cc(=O)n(CC(=O)NCc2ccc(OC(C)C)cc2)c2c1c(C)nn2-c1cccc(F)c1`: the AC50 under setting [1] is 0.126 µM [falling, full curve, poor fit]. Consider `c1ccc(-c2cnc(CSc3ncnc4sccc34)o2)cc1`, for which, under setting [1], the AC50 was 31.6 µM [falling, partial curve]. On to `O=C(COC(=O)c1cccc(NC(=O)c2ccco2)c1)c1ccc(Br)cc1`, for which the AC50 under setting [1] was 2.51 µM [falling, full curve]. As for `Cc1cc(C)cc(NS(=O)(=O)c2ccc(N3CCCCS3(=O)=O)cc2)c1`, the AC50 under setting [1] was 39.8 µM [falling, single point].

Regarding `Cc1ccc(NC(=O)CSc2nc(=O)n(Cc3ccccn3)c3c2CCC3)cc1F`, the AC50 under setting [1] is 15.8 µM [falling, partial curve]. Consider `COc1cc(C(=O)NCc2ccc3c(c2)CCN3C(=O)c2ccc(Cl)cc2)cc(OC)c1OC`, for which the AC50 under setting [1] was 15.8 µM [falling, partial curve]. Same read-out and setting: for `O=C(CC1OC(=O)c2ccccc21)NC1CCCCC1` (configuration not stated) the value was 10 µM [falling, partial curve]; for `O=C(Nc1ccccc1Cl)N1CCC2(CC1)Oc1ccccc1C(=O)N2Cc1ccc(F)cc1`, 20 µM [falling, single point]; for `CCOC(=O)c1ccc(N2C(=O)c3[nH]nc(-c4ccc(OC)cc4)c3C2c2cccc(O)c2)cc1` (configuration not stated), 15.8 µM [falling, partial curve]. With `COc1ccccc1NC(=O)Cn1nnc(C(=O)NCc2cccs2)c1N`, the AC50 under setting [1] is 3.16 µM [rising, full curve]. In the case of `O=c1cc(COc2ccccc2Cl)nc2scc(-c3ccccc3)n12`, under setting [1], the AC50 is 3.16 µM [rising, full curve, poor fit]. For `c1ccc(CNc2ncnc3ccccc23)cc1`, the half-maximal activity concentration (AC50) under setting [1] was 2.51 µM [falling, full curve]. `Cc1ccc(C2NC(=O)c3n[nH]c(-c4cccs4)c32)cc1` (configuration not stated): the AC50 under setting [1] was 25.1 µM [falling, single point]. Still for that read-out and setting: the same measure for `Cc1ccc(Cl)cc1N1CCN(C(=O)Cn2nc(C)c3sc4ccccc4c3c2=O)CC1`: 10 µM [falling, partial curve]; for `O=C(Nc1cccc(C(=O)OCc2cc(=O)n3c4c(sc3n2)CCCC4)c1)c1cccc(F)c1`: 2.51 µM [falling, full curve]. On the same count and under the same terms, the same measure for `COc1ccc(NC(=O)CCS(=O)(=O)c2nc(-c3ccc4c(c3)OCO4)cc(C(F)(F)F)n2)cc1OC`: 12.6 µM [falling, partial curve]; for `Cc1ccc(Cl)cc1NC(=O)CN1C=NS(=O)(=O)c2ccccc21`: 0.00501 µM [rising, full curve, poor fit].

For the compound `CCc1ccc(S(=O)(=O)Nc2ccc3c(c2)sc(=O)n3C)cc1`, the AC50 under setting [1] is 3.16 µM [falling, single point]. In the case of `Cc1cccc(Cn2c(=O)n(-c3cc(C)cc(C)c3)c(=O)c3oc4ccccc4c32)c1`, the concentration at half-maximal activity (AC50) under setting [1] was 12.6 µM [falling, partial curve]. In the case of `O=c1c2ccccc2nc(SCc2ccccc2)n1Cc1ccco1`, under setting [1], the AC50 is 15.8 µM [falling, partial curve].

Consider `COc1ccc(N(C)C(=O)Cn2cnc3sc(C)c(S(=O)(=O)N4CCN(c5ncccn5)CC4)c3c2=O)cc1`, for which, under setting [1], the AC50 was 2.51 µM [rising, partial curve, poor fit]. In the case of `CCC(=O)N1CCCc2cc(S(=O)(=O)N3CCCc4ccccc43)ccc21`, the AC50 under setting [1] is 10 µM [falling, partial curve]. `Cc1cccc(NC(=O)CSc2nc(-c3cccs3)nc3cc(=O)[nH]n23)c1`: the AC50 under setting [1] is 25.1 µM [falling, single point].

On to `CCN(C(=O)c1ccco1)c1nc(CC(=O)Nc2ccc(Cl)cc2)cs1`, for which the AC50 under setting [1] was 31.6 µM [falling, single point]. In the case of `COc1ccc(-c2c3c(nc4sc(C(=O)Nc5cccc(OC)c5)c(N)c24)CC(C)(C)CC3=O)cc1`, the AC50 under setting [1] is 7.94 µM [falling, partial curve]. Turning to `COc1ccc(OC)c(S(=O)(=O)N2CCC(C(=O)Nc3ccc(C)c(C)c3)CC2)c1`, under setting [1], the AC50 is 25.1 µM [falling, partial curve].

In the case of `Cc1cc(C(=O)N2CCN(c3ccccc3F)CC2)c2c(C)nn(-c3ccccc3)c2n1`, the AC50 under setting [1] is 20 µM [falling, partial curve]. On to `CCOC(=O)CCc1c(C)c2ccc(OCC(=O)N(CC)CC)c(C)c2oc1=O`, for which the AC50 under setting [1] is 12.6 µM [falling, partial curve].

As for `CCCCN(C)C(=O)CSc1c2c(nc3ccc(Cl)cc13)CCCC2`, the AC50 under setting [1] was 15.8 µM [falling, partial curve]. For `Cn1c(=O)c(=O)n(C)c2cc(NS(=O)(=O)c3ccc(Br)cc3)c(Cl)cc21`, the concentration at half-maximal activity (AC50) under setting [1] is 31.6 µM [falling, single point].

For `c1ccc(Nc2nc3ccccc3[nH]2)nc1`, the AC50 under setting [1] was 20 µM [falling, partial curve]. Take `CCOC(=O)C1=C(CNCc2ccccc2Cl)NC(=O)NC1c1ccc2c(c1)OCO2` (configuration not stated): the AC50 under setting [1] is 12.6 µM [falling, partial curve].

`CCCCNC(=O)CSc1nc2cc3c(cc2c(=O)n1Cc1ccc(C(=O)NCCc2ccc(OC)c(OC)c2)cc1)OCO3`: the AC50 under setting [1] was 39.8 µM [rising, single point] [measured here: IkB-luc green channel]. Take `CCOC(=O)c1sc(NC(=O)CSc2nnc(-c3ccco3)n2CC)c(C(=O)OCC)c1C`: the AC50 under setting [1] was 6.31 µM [falling, partial curve]. Still for that read-out and setting: for `O=C(CCC(=O)N1Cc2ccccc2Oc2ncccc21)NCc1cccc(Cl)c1` the value was 2.51 µM [falling, partial curve]; for `CC(Oc1ccccc1)C(=O)Nc1ccc(C(=O)OCc2cc(=O)n3nc(C4CC4)sc3n2)cc1` (configuration not stated), 25.1 µM [falling, partial curve]. On to `COc1ccc(-c2cn3c(n2)sc2cc(C(=O)Nc4ccc(C)c(Cl)c4)ccc23)cc1`, for which, under setting [1], the AC50 was 12.6 µM [falling, partial curve].

Take `CCOC(=O)c1[nH]c2c(c1Cc1ccccc1C)C(=O)CC(c1ccccc1)C2` (configuration not stated): under setting [1], the AC50 is 5.01 µM [falling, partial curve]. For `CCc1ccc(NC(=O)c2cnn(-c3c(C)cccc3C)c2C2CCN(C(=O)OC(C)(C)C)CC2)cc1`, the AC50 under setting [1] is 7.94 µM [falling, partial curve]. Still for that read-out and setting: the same measure for `O=C(NCCc1ccccc1)C(=O)NCC(c1cccs1)S(=O)(=O)c1cccs1` (configuration not stated): 20 µM [rising, partial curve, poor fit]; for `CC1(C)N=C(SCc2ccc(Cl)cc2)c2ccccc2N1`: 0.00631 µM [falling, full curve, poor fit]. On the same count and under the same terms, for `Cc1cc(=O)[nH]c2nnc(SCc3ccccc3F)n12` the value was 3.16 µM [rising, partial curve]; for `Cc1ccc(S(=O)(=O)N2CCN(Cc3cc(=O)n4nc(-c5ccccc5Cl)sc4n3)CC2)cc1`, 39.8 µM [falling, single point]. As for `COc1ccccc1CNC(=O)c1cnc2sc(N3CCCCC3)nn2c1=O`, under setting [1], the AC50 was 7.94 µM [rising, partial curve]. As for `CCOC(=O)N1CCN(C(=O)CSCC(=O)Nc2nc(-c3ccc(OC)cc3)cs2)CC1`, the AC50 under setting [1] was 12.6 µM [falling, partial curve]. Still for that read-out and setting: the same measure for `COc1cccc(C2C(C(=O)Nc3ccccc3OC)=C(C)Nc3nc(-c4ccco4)nn32)c1` (configuration not stated): 31.6 µM [falling, single point].

On to `Cc1ccc(NC(=O)C2CCN(S(=O)(=O)c3cccc4nonc34)CC2)nc1`, for which the AC50 under setting [1] was 20 µM [falling, partial curve]. The same measure, in the same setting: for `CCC(Sc1nnc2c3ccccc3n(CC)c2n1)C(=O)Nc1ccc(NC(C)=O)cc1` (configuration not stated) the value was 31.6 µM [falling, single point]; for `COc1ccc(-c2noc(CSc3nc4ccc(C)cc4[nH]3)n2)cc1`, 15.8 µM [falling, partial curve].

Usually AC50 stands for the concentration giving half of the maximal activity seen.
